Assay results published in paper PMC6906086.
No constants are given. Whether binding was seen depends on the method and setting.

Target: Lsr2 DNA-binding domain, wild type (Mycobacterium tuberculosis H37Rv) (UniProt P9WIP7)
Assay: NMR solution structure and 15N relaxation; both purified

Lsr2 DNA-binding domain, wild type (from UniProt P9WIP7) (domain or fragment)
binding: no binding (tested: 0.5mM)
